# From PubChem BioAssay AID504467 (National Center for Advancing Translational Sciences (NCATS), 2011)
# About 7,700 (2.3%) of roughly 330,000 compounds were called active. Inconclusive means that the source gave no clear call. Such entries were picked first, then a sample of the others. Calls follow the shape of the dose curve; as a rule, active = well fitted inhibition curve with a large enough effect; inconclusive = small, poorly fitted or top-dose-only effect, or effect the other way; inactive = flat fitted curve, though single readings scatter. Where the call is inconclusive, the potency comes from a doubtful curve fit.
# Test: qHTS screen for small molecules that inhibit ELG1-dependent DNA repair in human embryonic kidney (HEK293T) cells expressing luciferase-tagged ELG1; also: nearly all actives have a fitted effect of over 55% in size
# Settings: HEK293T ELG1-luciferase reporter, luminescence, 16 h, DNA damage induced by 5-fluorouridine; series mostly up to 46.1 µM
# In short: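 DMSO vehicle served as the neutral condition. Each well held 2,000 cells given 5-fluorouridine plus compound; after 16 hr at 37 °C/5% CO2, ONE-Glo was added and luciferase measured 30 min later.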
# Potency is read from the fitted curve at half-maximal effect.
row,SMILES,Potency
1,COCCOC(=O)CSc1ncccc1-c1nc2cc(C)c(C)cc2[nH]1,"inconclusive: 10.3 µM [activator, partial curve]"
2,CN(C)/C=N/c1sc2c(c1C#N)CCCCC2,"inconclusive: 14.6 µM [activator, partial curve]"
3,CCc1nn(CC(=O)NCCCN2CCN(CC)CC2)c(=O)c2cc3occc3n12,inactive
4,CCCc1c(O)nc(SCCN(CCC)CCC)[nH]c1=O,inactive
5,O=C(Cn1nnc2ccccc2c1=O)NCCc1ccccc1,"inconclusive: 32.6 µM [activator, partial curve, poor fit]"
6,Cc1c(CC(=O)NC(C)C)c(=O)oc2cc3c(cc12)CCC(C)(C)O3,"inconclusive: 18.3 µM [activator, partial curve]"
7,N#C/C(=C\c1cccnc1)C(=O)Nc1ccccc1,inactive
8,Cc1ccc(-n2ncc3c2CCCC3NC(=O)c2ocnc2C)cc1C (configuration not stated),"inconclusive: 1.64 µM [inhibitor, partial curve]"
9,COc1ccc(NC(=O)c2ccc(OCC3CCCO3)cc2)cc1Cl (configuration not stated),"inconclusive: 10.3 µM [activator, partial curve]"
10,Cc1ccc(-n2c(-c3ccccc3)nnc2-c2cccs2)cc1,inactive
11,COc1ccc(C(=O)N(Cc2ccco2)C(C(=O)NC2CCCC2)c2ccc(O)cc2)cc1OC (configuration not stated),"inconclusive: 18.4 µM [inhibitor, single point]"
12,NC(=O)CSc1nnc(Cn2cnc3ccccc32)o1,inactive
13,CC(=O)Nc1cccc(NC(=O)c2ccc3[nH]c(C)c(C)c3c2)c1,"inconclusive: 18.3 µM [activator, partial curve, poor fit]"
14,C[C@]12c3[nH]c4ccccc4c3CCN1C(=O)C(CC(=O)NCC13CC4CC(CC(C4)C1)C3)C[C@@H]2C(=O)N1CCCCC1 (some centres not stated),"inconclusive: 29.1 µM [inhibitor, single point]"
15,Cn1c(C(C#N)C(=O)c2sc3ccccc3c2Cl)nc2ccccc21 (configuration not stated),inactive
16,Cc1ncoc1C(=O)N1CCCC(C(=O)c2cccc3ccccc23)C1 (configuration not stated),inactive
17,Cc1ccsc1C(=O)OCC(=O)NC1CCCC1,"inconclusive: 14.6 µM [activator, partial curve]"
18,N#CCN1CCC(c2cc(-c3ccco3)n[nH]2)CC1,inactive
19,CC(=O)Nc1ccc(S(=O)(=O)N(C)CC(=O)OCC(=O)Nc2ccc3c(c2)OCO3)cc1,"inconclusive: 18.4 µM [activator, partial curve, poor fit]"
20,Cc1ccsc1/C=N/n1cnc2sc(C)c(C)c2c1=O,"inconclusive: 5.17 µM [activator, partial curve]"
21,Cc1ccc(-c2csc(NC(=O)CCNC(=O)c3ccccc3Cl)n2)cc1,"inconclusive: 18.4 µM [inhibitor, partial curve]"

row,SMILES,Potency
1,CN(Cc1ccccc1)C(=O)COC(=O)CNS(=O)(=O)c1ccc2ccccc2c1,"inconclusive: 11.2 µM [activator, partial curve, poor fit]"
2,CCOc1cc(C2C(C#N)=C(N)Oc3cc(N)ccc32)ccc1O (configuration not stated),"inconclusive: 29.1 µM [inhibitor, single point]"
3,O=C(c1ccncc1)N1N=C2CCCCCC2C1(O)C(F)(F)F (configuration not stated),inactive
4,Cc1noc(C)c1NC(=O)N(C)C[C@@H]1Oc2ccc(NC(=O)C3CCCCC3)cc2C(=O)N([C@@H](C)CO)C[C@H]1C,"inconclusive: 20.6 µM [activator, partial curve, poor fit]"
5,Cc1oc(-c2cc(F)ccc2F)nc1CN1CCN(c2cnccn2)CC1,"inconclusive: 32.6 µM [inhibitor, single point]"
6,CC1CCN(c2ccc(NC(=O)c3ccccc3[N+](=O)[O-])cc2)CC1,"inconclusive: 18.3 µM [activator, partial curve]"
7,Cc1snc2sc(C(=O)c3ccc(Br)cc3)c(N)c12,"inconclusive: 9.2 µM [activator, partial curve]"
8,CN(C)S(=O)(=O)c1cccc(-c2nn(-c3ccccc3)cc2/C=C2\SC(=S)N(CC(=O)O)C2=O)c1,"inconclusive: 23.1 µM [inhibitor, single point]"
9,Cc1cc(Br)ccc1NCc1ccccn1,"inconclusive: 12.6 µM [activator, partial curve, poor fit]"
10,Fc1ccc(-c2nn3c(C4COc5ccccc5O4)nnc3s2)cc1 (configuration not stated),"inconclusive: 20.6 µM [activator, single point]"
11,CC(C)(C)c1ccccc1OCC(=O)Nc1ccccc1C(=O)NCc1cccnc1,"inconclusive: 25.9 µM [inhibitor, single point]"
12,CCCN1C(=O)c2ccc(C(=O)Nc3ccccc3C(=O)O)cc2C1=O,"inconclusive: 29.1 µM [activator, single point]"
13,COc1ccccc1N1CCN(c2ccnc3cc(Cl)ccc23)CC1,"inconclusive: 6.51 µM [inhibitor, partial curve]"
14,Cc1cc2c(cc1C)[n+](C)cn2CC(O)COCC1CC=CCC1 (configuration not stated),"inconclusive: 16.4 µM [inhibitor, partial curve]"
15,O=C(C1=C[C@@H](c2ccc(Br)cc2)C[C@@H](OCc2ccc(CO)cc2)O1)N1CCN(Cc2ccccc2)CC1,active: 23.1 µM
16,Cc1ccc(NC(=S)N2CCN(S(=O)(=O)c3ccc(C)cc3)CC2)cc1,inactive
17,Cc1ccc(CNC(=O)c2cc(S(=O)(=O)N3CCCC3)cn2C)cc1,inactive
18,Cc1cc(-c2n[nH]c(=S)n2Cc2ccco2)n(C)n1,"inconclusive: 18.4 µM [activator, partial curve, poor fit]"
19,Cc1ccc(C)c(NC(=O)COC(=O)c2c(C)nn(-c3ccccc3)c2C)c1,"inconclusive: 23.1 µM [inhibitor, partial curve, poor fit]"
20,COc1ccc(C(=O)NCC2OCCc3ccccc32)c(O)c1 (configuration not stated),"inconclusive: 18.4 µM [activator, partial curve]"
21,CCOC(=O)N1CCC(N2C(=O)c3ccccc3C2Nc2cc(OC)c(OC)c(OC)c2)CC1 (configuration not stated),"inconclusive: 16.4 µM [inhibitor, partial curve, poor fit]"

# An excerpt taken from the entries so far, as a working copy:
row,SMILES,Potency
8,Cc1ccc(-n2ncc3c2CCCC3NC(=O)c2ocnc2C)cc1C (configuration not stated),"inconclusive: 1.64 µM [inhibitor, partial curve]"
9,COc1ccc(NC(=O)c2ccc(OCC3CCCO3)cc2)cc1Cl (configuration not stated),"inconclusive: 10.3 µM [activator, partial curve]"
